Laboratory results: patent US11590129B2, “Combination therapy with an antitumor alkaloid” (PHARMA MAR, S.A., priority 2010, dated 2023)

Experiments:
[1] = test system: U87-MG human glioblastoma cell line; assay: cells; conditions: U-87 MG, 72 h
Experimental: (§1) a. […] Briefly, cells were harvested and seeded in 96 well microtiter plates at a density of 5,000 cells in 150 μL of culture medium and incubated for 24 hours in drug-free medium before treatment with vehicle alone or test compounds for 72 h.
(§2) The cytotoxic effect was measured by the MTT reduction assay, in which 3-(4,5-Dimethylthiazol-2-yl)-2,5-diphenyltetrazolium bromide, a tetrazole, which is reduced to purple formazan in the mitochondria of living cells, was used. MTT (50 μL of 1 mg/mL stock solution) was added to the wells and incubated for 8 hours at 37° C. until formazan crystals were formed. After gently removing the culture medium, DMSO was added to dissolve the insoluble purple formazan product into a colored solution. […] Results were expressed as percentage of control cell growth.
(§3) b. In a second set of assays, A549 human tumor cells were incubated with PM01183 in combination with each of the agents mentioned above.
(§4) As a visual aid, response values were plotted on a scatter plot with dose ratios given on the x-axis and % response values on the y-axis. […] In cases where response values at the two endpoints were approximately equivalent, points lying above or below this predicted line of additivity could be interpreted as representing antagonistic or synergistic drug interaction, respectively. […]

[2] = test system: A549 human lung carcinoma cell line; assay: MTT cytotoxicity assay in A549 cells: IC50 of single agents and combinations with PM01183; type: cell-based; conditions: A549, 72 hours drug exposure
Experimental: Additional serial dilutions were prepared in serum-free culture medium to achieve a final 4× concentration. Aliquots of 50 μL of each diluted compound were added per well.
A549 was the human lung carcinoma cell line selected for this assay.
as §1, §2, §3
As a visual aid, response values were plotted on a scatter plot with dose ratios given on the x-axis and % response values on the y-axis. […]

[3] = test system: PANC-1 human pancreatic carcinoma cell line; assay: cells; conditions: PANC-1, 72 h
Experimental: as §1, §2, §3, §4

[4] = test system: RXF-393 human kidney carcinoma cell line; assay: cells; conditions: RXF 393, 72 h
Experimental: as §1, §2, §3, §4

[5] = test system: MDA-MB-231 human breast adenocarcinoma cell line; assay: cells; conditions: MDA-MB-231, 72 h
Experimental: as §1, §2, §3, §4

[6] = test system: HT-29 human colon adenocarcinoma cell line; assay: cells; conditions: HT-29, 72 h
Experimental: as §1, §2, §3, §4

[7] = test system: HGC-27 human gastric carcinoma cell line; assay: cells; conditions: HGC-27, 72 h
Experimental: as §1, §2, §3, §4

[8] = test system: PC-3 human prostate cancer cell line; assay: cells; conditions: PC-3, 72 h
Experimental: as §1, §2, §3, §4

O=C(CCCCCCC(=O)Nc1ccccc1)NO [Vorinostat, vorinostat]
IC50 [1]: 16 µM | IC50 [2]: 6.81 µM | IC50 [3]: 6.05 µM | IC50 [4]: 4.1 µM | IC50 [5]: 1.7 µM | IC50 [6]: 2.76 µM | IC50 [7]: 1.2 µM | IC50 [8]: 3.9 µM
